Results published in US8178727B2, “Bis(arylmethylidene)acetone compound, anti-cancer agent, carcinogenesis-preventive agent, inhibitor of expression of Ki-Ras, ErbB2, c-Myc and Cycline D1, β-catenin-degrading agent, and p53 expression enhancer” (National University Corporation Tohoku University, priority 2005, dated 2012).
Some entries share one result that the patent states for a list of compounds.

Columns and labels:
Format in all cases: cell-based, human
[1] = test system: ErbB2, c-Myc, and Cyclin D1; experiment: Western blot of expression of oncogene products; settings: expression level of ErbB2, c-Myc, FIG. 8
[2] = test system: HCT116 cells; experiment: Cell growth inhibition (Cell Counting Kit 8, Wst-8), 96 h exposure; settings: versus curcumin IC50 8.0 μM and BDMPP IC50 […]
Method: (§1) The inhibitory efficacy of bis(arylmethylidene)-acetones on the development and growth of malignant tumor cells was examined. Curcumin and bis(arylmethylidene)-acetone compounds were dissolved in DMSO to obtain 50 mM compound solutions for storage. Sixteen human cancer cell lines (HCT116, DLD-1, SW620. LK87, PC3, MCF7, PK9, HuCCT-1, SH10TC, GCIY, G361, 8505c, HepG2, A431, ACHN, OVK18) were obtained from the Medical Cellular Resources Center of the Institute of Development, Aging, and Cancer at Tohoku University, Japan. These cells were cultured at 37° C. under 5% CO2 conditions using as a culture medium RPMI1640 (Sigma Aldrich) supplemented with 10% fetal bovine serum and kanamycin (Wako Pure Chemical Industries: final concentration, […]).
(§2) Three human colon-cancer cell lines (DLD-1, HCT116, SW620) were used in screening for cell growth inhibitory efficacy. The test compounds (bis(arylmethylidene)-acetones) were added to the culture media at the target concentrations, and exposure to the compounds was then continued for 96 hours in order to investigate not only acute cell damages but also effects on the cells, involving intracellular metabolic responses and others. The cell growth inhibitory efficacy was then evaluated with Cell Counting Kit 8 (Wst-8 Test, Dojindo Laboratories, Japan). In this analysis method, tetrazolium salt Wst-8 is degraded by reduced form nicotinamide adenine dinucleotide (nicotinamide adenine dinucleotide H; NADH). The activity of NADH is maintained only inside viable cells, and Wst-8 becomes colored upon degradation. The optical absorbance at 450 nm is measured, whereby the number of viable cells can be indirectly estimated.
(§3) Each cell line was placed on a 96-well microtiter plate at a cell density of 2500 to 5000 cells/100 μL/well in accordance with the growth rate of the cell line. After cell cultivation for 24 hours, […] medium containing each compound was added. The final concentration of each test compound is 0, 0.1, 0.25, 0.5, 1, 2.5, 5, 10, 25, 50, and 100 μM (11 levels). The maximum final concentration of DMSO used as a solvent was 1%. After culturing for 96 hours, the medium was aspirated away, followed by washing with PBS. Next, 100 μL of a medium containing a solution of Cell Counting Kit 8 at 1/10 (v/v) was added. Culturing was then continued for one hour. Thereafter, each optical absorbance at 450 nm (620 nm background) was measured with an MPR-A4i microplate reader (Tosoh, Japan). A curve of the inhibition of cell growth was constructed using the measured optical absorbances.

[3] = test system: DLD-1 cells; experiment: as above; settings: versus curcumin IC50 8.0 μM and BDMPP IC50 2.0 μM
Method: as §1, §2, §3

[4] = test system: DLD-1 cells; experiment: Cell cycle / apoptosis-inducing activity by flow cytometry (FACScan); settings: for concentration arresting the cell cycle at the G2/M phase: DLD-1 cells, flow cytometry
Method: The activity of test compounds in cell cycle (apoptosis-inducing activity) was analyzed with a flow cytometer (FACScan). […] The cells attached to the plates are then harvested together with the cells suspended in the medium, centrifuged, and pelleted, followed by removal of supernatants. The collected cells were washed twice with PBS, then fixed with 70% ethanol for 30 minutes or more at 4° C., then washed with PBS once more, suspended in PBS supplemented with RNaseA (final concentration: 50 μg/mL; Qiagen), and incubated for 20 minutes at 37° C. Centrifugation was performed, and the supernatant was removed, after which the nuclei were stained using a solution of propidium iodide ([…]). Filtration was then performed using a nylon mesh having a pore size of 50 μm, and a DNA histogram was analyzed with a FACScan flow cytometer ([…]). The cellular fractions of subG1 phase, G0/G1 phase, S phase, and G2/M phase were determined by calculation using macCycle (Phoenix Flow Systems).

Compound	factor by which concentration giving effect equal to or greater than curcumin is lower than that of curcumin [1]	factor by which growth inhibitory effect exceeds curcumin and BDMPP [2]	factor by which growth inhibitory effect exceeds curcumin and BDMPP [3]	sub-G1 fraction (apoptosis-induced cell death) ([4]; 2 μM compound) [%]	concentration arresting the cell cycle at the G2/M phase [4] [µM]
COCOc1c(OC)cc(/C=C/C(=O)/C=C/c2cc(OC)c(OCOC)c(OC)c2)cc1OC [GO-Y031, (1E,4E)-1,5-bis-(3,5-dimethoxy-4-methoxymethoxyphenyl)penta-1,4-dien-3-one]	≥ 8	10 to 40	8 to 32	20 to 26	1 to 2
COc1cc(/C=C/C(=O)/C=C/c2cc(OC)c(OC)c(OC)c2)cc(OC)c1OC [GO-Y016, (1E,4E)-1,5-bis-(3,4,5-trimethoxyphenyl)penta-1,4-dien-3-one]		10 to 40	8 to 32		1 to 2
